Results of single-concentration screens

Data taken from ChEMBL document CHEMBL3988442, “University of Dundee, Small-Polar-MMV Screening Library” (2021).

Toxoplasma: 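Assay of Toxoplasma gondii numbers, read through their beta-galactosidase reporter with a colour substrate. Tested at 10 µM. Higher reads as fewer parasites (inferred from which compounds were picked for retests). Size under these conditions: about 67,000 compounds, about 260 of them at 50% or above in at least one test.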
T. brucei: 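Whole-parasite assay of Trypanosoma brucei over 72 hours; the read-out is not stated. Tested at 30 µM. Higher reads as stronger inhibition (inferred: compounds with an IC50 in retests scored well above the rest). Values scatter widely below zero; nearly all retest evidence comes from the higher of the two concentrations used. Of about 64,000 compounds tested this way, about 940 (1.5%) reached 50% or more in at least one test.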

The filed quantity is “Percent Effect” (%).
The controls that fix the scale are not given in the record; negative values are as filed.
Compounds were drawn at random from those tested, without regard to their results.
A dash means the value is not listed here; it may have been measured.

| # | Compound | Toxoplasma | T. brucei |
|---|---|---|---|
| 1 | `O=C(O)C(F)(F)F.[H][C@@]12CN(C(=O)Cc3ccsc3)C[C@]1([H])OCCN2c1cnccn1` | -2.809 | -61.87 |
| 2 | `Cc1nn(C)cc1-c1cncn1CCN(C)C1CCCC1.Cl` | -7.422 | -11.11 |
| 3 | `NC(=O)c1cccc(CC2CCN(C(=O)CCc3cccc(F)c3)C2)c1` (stereo not given) | -5.109 | -8.153 |
| 4 | `CSCc1cccc(S(=O)(=O)NCCCN2CCOCC2)c1` | 11.34 | 0.281 |
| 5 | `O=C(NCC(c1ccc(F)cc1)N1CCOCC1)Nc1cn[nH]c1` (stereo not given) | 0.958 | - |
| 6 | `CN(C)CCN1CC2(CCC1=O)CCN(C(=O)c1ccn(C)n1)CC2` | -4.255 | -0.2255 |
| 7 | `Cc1cnc(NC(=O)c2ccc(-n3ncc(C#N)c3N)cc2)s1` | - | -10.75 |
| 8 | `Cc1cccc(-c2c[nH]c(C3CCCN3C(=O)C3CCOCC3)n2)c1` (stereo not given) | 1.693 | -9.755 |
| 9 | `CC(C)(C)NC(=O)COc1ccc(CNCc2ccccn2)cc1` | 20.1 | -73.34 |
| 10 | `CCOCCCNC(=O)CN(c1ccc(C)c(C)c1)S(C)(=O)=O` | 2.047 | - |
| 11 | `O=C(O)C(F)(F)F.[H][C@@]12CCN(Cc3ccc4c(c3)OCO4)C[C@]1([H])O[C@H](C(=O)N1CCCC1)C2` | -1.605 | 24.42 |
| 12 | `CC[C@H]1N(C)CCC[C@]12CCC(=O)N2Cc1ccncc1.O=C(O)C(F)(F)F.O=C(O)C(F)(F)F` | 0 | -8.914 |
| 13 | `Cc1ccc(S(=O)(=O)NCCc2cccnc2)cc1C` | 11.63 | -14.61 |
| 14 | `Cc1nccn1-c1ccc(CNS(=O)(=O)N2CCC(C)CC2)cn1` | -10.03 | -28.21 |
| 15 | `Cc1nc(C)n(Cc2cccc(NC3CCN(C)C3=O)c2)n1` (stereo not given) | -0.649 | -61.26 |
| 16 | `CC(NC(=O)NC1CCN(CC2CCCC2)CC1)c1nccs1` (stereo not given) | 6.885 | -12.7 |
| 17 | `Brc1ccc(CNCc2nnc3n2CCCCC3)s1.Cl` | 0.649 | -54.29 |
| 18 | `CCc1ncc2c(n1)CN(C(=O)CNC(=O)c1ccccc1)C2` | -27.92 | - |
| 19 | `Cc1cc(C)c(S(=O)(=O)Nc2c(C)noc2C)cc1C(=O)O` | -12.19 | -25.41 |
| 20 | `O=C(O)C(F)(F)F.O=C(c1ccc[nH]1)N1CCO[C@]2(CCC[C@@H]2COc2cccnc2)C1` | 4.394 | -15.78 |
| 21 | `CN(C)C(=O)c1ccc(C2CCCNC2)nc1.Cl.Cl` (stereo not given) | 8.37 | -34.47 |
| 22 | `CC(C)NC(=O)N1CCC[C@H]1C(=O)NCCCc1cccc(F)c1` | 0.1836 | -12.97 |
| 23 | `Cc1cc(NC2CCc3nc(C(C)C)nn3C2)n2ncnc2n1` (stereo not given) | 3.32 | -9.782 |
| 24 | `CN(C)CCC(Nc1nc(N)nc2c1CCNCC2)c1ccccc1` (stereo not given) | 2.01 | -21.35 |
| 25 | `N#CCCN(Cc1ccccn1)Cn1cc(Cl)cn1` | 0.336 | -20.33 |
| 26 | `CCCc1noc(CCC(=O)N2CCCC2Cn2cc(C)cn2)n1` (stereo not given) | -11.84 | -13.84 |
| 27 | `O=C(O)CCc1nc2nccc(C(F)(F)F)n2n1` | 14.09 | -11.68 |
| 28 | `COCCN1CCCN(C(=O)c2scnc2C)CC1` | 6.254 | -7.021 |
| 29 | `CCC(NC(=O)NCc1cc(Cl)ccc1OC)c1noc(C)n1` (stereo not given) | -1.426 | -44.73 |
| 30 | `CN1N=C(C(=O)N2CCCC(n3ccnc3)C2)CCC1=O` (stereo not given) | 40.26 | -18.44 |
| 31 | `CN(Cc1ccco1)C1CCC12CCN(C(=O)c1ccncc1)CC2` (stereo not given) | -26.67 | -6.112 |
| 32 | `Oc1ccccc1N1CCN(c2ncnc3sc4c(c23)CCNC4)CC1` | 3.631 | -20.43 |
| 33 | `Cc1csc(NCC(=O)c2c[nH]c3ccccc23)n1.I` | 6.68 | - |
| 34 | `CC(C)Cc1cc(NC(=O)c2cccnc2)n(C)n1` | 16.05 | -3.36 |
| 35 | `CCC[C@H]1CN(S(C)(=O)=O)C[C@@H]1NC(=O)c1ccc(COC)cc1` | -1.183 | -17.49 |
| 36 | `O=C(NCC1CCCO1)c1cc(-c2ccc3c(c2)CCO3)n[nH]1` (stereo not given) | 18.3 | -4.522 |
| 37 | `CCc1ncc(C(=O)N(C)C(C)c2ccc3c(c2)OCCO3)cn1` (stereo not given) | 17.9 | -6.496 |
| 38 | `CC(C)c1nccn1C1CCCN(C(=O)c2cccc3[nH]ncc23)C1` (stereo not given) | -0.6948 | 13.18 |
| 39 | `O=C(O)C(F)(F)F.[H][C@@]12C[C@H](C(=O)NC)CN(Cc3ccc(F)cc3)[C@]1([H])CCO2` | -31.83 | -48.69 |
| 40 | `CS(=O)(=O)NCC1CCCN(C(=O)c2ccc(Cl)o2)C1` (stereo not given) | 6.897 | 5.382 |
| 41 | `O=C(O)C(c1ccc2c(c1)OCO2)N1CCC(C(=O)N2CCCC2)CC1` (stereo not given) | -1.322 | -24.55 |
| 42 | `CC1N(CC2CC2)C(=O)COC12CCN(C(=O)c1cnccn1)CC2` (stereo not given) | -0.3723 | -77.75 |
| 43 | `CC(Cn1ccnc1)NC(=O)C1(c2ccc(F)cc2)CCCC1` (stereo not given) | 14.84 | -6.079 |
| 44 | `CC(c1cc(F)ccc1F)N1CCN(C(=O)c2ccc(=O)[nH]c2)CC1` (stereo not given) | 13.27 | -63.8 |
| 45 | `Cc1cc(NC(=O)NCc2cccnc2OC(C)C)n(C)n1` | -0.2812 | 2.863 |
| 46 | `CCn1nc(C)c2nc(C(C)C)nc(NCCCO)c21` | 1.913 | 46.64 |
| 47 | `COC(=O)c1ccc(N(C(=O)c2cc(Cl)ccn2)C(C)C)c(C)c1` | 3.098 | -25.09 |
| 48 | `COc1ccccc1-n1nc(-c2ccco2)n(CC(=O)NC(C)C)c1=O` | -42.08 | 22.26 |
| 49 | `COc1cccc(Cn2c(C)c(C)oc2=O)c1OC` | 5.578 | -24.8 |
| 50 | `[H][C@]12CN(CC3CC3)C(=O)[C@@]1([H])CN(S(=O)(=O)CC)C2` | -3.854 | -56.74 |
| 51 | `CCc1c(C)nn(CCNC(=O)Cc2csc(C)n2)c1C` | -5.692 | -10.5 |
| 52 | `Cc1ccnc(C2CCN(C(=O)c3cnn(C)c3)C2)n1` (stereo not given) | 18.17 | -11.24 |
| 53 | `CCOCC(O)CN1CCN(C(=O)c2ccncc2)CC1` (stereo not given) | 0.6321 | -46.95 |
| 54 | `CNC(=O)C1(c2cnccn2)CCCN1C(=O)c1ccccc1OC` (stereo not given) | -4.428 | -10.85 |

The last 6 entries again:

Compound	Toxoplasma	T. brucei
COc1cccc(Cn2c(C)c(C)oc2=O)c1OC	5.578	-24.8
[H][C@]12CN(CC3CC3)C(=O)[C@@]1([H])CN(S(=O)(=O)CC)C2	-3.854	-56.74
CCc1c(C)nn(CCNC(=O)Cc2csc(C)n2)c1C	-5.692	-10.5
Cc1ccnc(C2CCN(C(=O)c3cnn(C)c3)C2)n1 (stereo not given)	18.17	-11.24
CCOCC(O)CN1CCN(C(=O)c2ccncc2)CC1 (stereo not given)	0.6321	-46.95
CNC(=O)C1(c2cnccn2)CCCN1C(=O)c1ccccc1OC (stereo not given)	-4.428	-10.85